Among the data in article PMC12083654 are binding values, retold here.

In this assay the target is T1, HA-tagged WT-RPE65 (human) (UniProt Q16518).
T1 sequence: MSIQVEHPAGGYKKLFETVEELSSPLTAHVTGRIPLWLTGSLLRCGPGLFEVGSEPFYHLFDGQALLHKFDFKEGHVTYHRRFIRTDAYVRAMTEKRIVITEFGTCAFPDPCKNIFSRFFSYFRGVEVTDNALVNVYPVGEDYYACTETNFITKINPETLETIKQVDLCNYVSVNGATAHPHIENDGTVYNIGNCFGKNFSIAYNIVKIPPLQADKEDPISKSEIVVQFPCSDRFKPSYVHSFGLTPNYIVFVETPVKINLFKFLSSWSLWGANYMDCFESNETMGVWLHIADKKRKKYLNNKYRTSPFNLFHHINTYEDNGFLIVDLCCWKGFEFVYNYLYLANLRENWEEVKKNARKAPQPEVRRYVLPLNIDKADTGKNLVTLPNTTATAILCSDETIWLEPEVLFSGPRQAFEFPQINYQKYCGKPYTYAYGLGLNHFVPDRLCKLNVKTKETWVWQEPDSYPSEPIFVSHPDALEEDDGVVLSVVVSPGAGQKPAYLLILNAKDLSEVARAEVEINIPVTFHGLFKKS
The experiment in a line: co-IP; ARPE-19 cells single or co-transfected at equal molar ratio with HA-tagged WT-RPE65 and MYC-tagged variant RPE65; RIPA extract 48 h after transfection; protein A Dynabeads with anti-MYC, anti-HA or anti-IgG; blots with anti-MYC and anti-HA.

Residue numbers refer to the chain shown, from its start. Names may count otherwise. No constants are given. Whether binding was seen depends on the method and setting. In cells and extracts the contact can be indirect. Some binding calls cover weakened binding; strength is not graded here. Sequences can lack the tags named with a protein.

B1: MYC-tagged p.(D477G)-RPE65 (enzyme, UniProt Q16518 1-533)
chain: T1 sequence with D477G
As for B1, the binding result is given as “binds”.

B2: MYC-tagged p.(E519K)-RPE65 (enzyme, UniProt Q16518 1-533)
chain: T1 sequence with E519K
As for B2, the binding entry is given as “no binding”.
